Measurements reported in the supplement of paper PMC10849652.
The list shows a part of the results.

Chains of the proteins cited; added tags and fusions are not shown. Lines headed by an entry give the natural chain unless they say otherwise; changes in a name come on top.
UniProt P0DJ07: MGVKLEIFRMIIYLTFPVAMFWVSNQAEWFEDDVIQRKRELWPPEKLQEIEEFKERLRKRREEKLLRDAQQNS
UniProt Q99447: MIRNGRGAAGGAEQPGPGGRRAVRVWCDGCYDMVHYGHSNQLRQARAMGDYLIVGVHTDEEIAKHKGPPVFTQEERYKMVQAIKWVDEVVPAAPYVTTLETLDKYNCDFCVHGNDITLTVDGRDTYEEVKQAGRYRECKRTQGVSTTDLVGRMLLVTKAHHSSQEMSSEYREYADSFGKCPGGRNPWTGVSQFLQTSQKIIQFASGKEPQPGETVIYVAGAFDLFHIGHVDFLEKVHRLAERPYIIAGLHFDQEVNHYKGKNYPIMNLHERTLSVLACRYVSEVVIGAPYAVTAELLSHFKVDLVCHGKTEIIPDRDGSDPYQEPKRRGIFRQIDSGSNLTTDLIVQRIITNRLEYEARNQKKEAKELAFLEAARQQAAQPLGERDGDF
UniProt Q9BZ23: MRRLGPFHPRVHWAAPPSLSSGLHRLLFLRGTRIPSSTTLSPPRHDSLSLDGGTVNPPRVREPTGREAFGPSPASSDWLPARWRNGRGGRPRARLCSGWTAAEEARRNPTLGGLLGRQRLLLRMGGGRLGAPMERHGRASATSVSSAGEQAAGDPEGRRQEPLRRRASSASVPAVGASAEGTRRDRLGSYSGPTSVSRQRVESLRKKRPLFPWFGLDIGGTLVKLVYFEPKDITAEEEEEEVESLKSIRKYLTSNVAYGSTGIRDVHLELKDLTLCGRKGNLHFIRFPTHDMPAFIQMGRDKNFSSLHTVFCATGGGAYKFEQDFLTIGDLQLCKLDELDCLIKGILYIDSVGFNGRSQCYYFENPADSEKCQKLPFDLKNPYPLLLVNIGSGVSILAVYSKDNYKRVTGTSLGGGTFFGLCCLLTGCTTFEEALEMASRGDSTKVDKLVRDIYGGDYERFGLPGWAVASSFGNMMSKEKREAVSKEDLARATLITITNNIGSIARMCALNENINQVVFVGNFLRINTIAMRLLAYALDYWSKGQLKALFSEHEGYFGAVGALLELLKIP
UniProt Q9HBH1: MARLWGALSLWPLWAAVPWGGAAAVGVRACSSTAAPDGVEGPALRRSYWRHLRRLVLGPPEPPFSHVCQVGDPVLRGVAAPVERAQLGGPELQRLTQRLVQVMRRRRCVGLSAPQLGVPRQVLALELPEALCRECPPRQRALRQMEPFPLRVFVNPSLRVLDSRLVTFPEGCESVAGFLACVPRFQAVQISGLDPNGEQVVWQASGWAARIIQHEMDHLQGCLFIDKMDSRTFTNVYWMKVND
UniProt Q96HC4: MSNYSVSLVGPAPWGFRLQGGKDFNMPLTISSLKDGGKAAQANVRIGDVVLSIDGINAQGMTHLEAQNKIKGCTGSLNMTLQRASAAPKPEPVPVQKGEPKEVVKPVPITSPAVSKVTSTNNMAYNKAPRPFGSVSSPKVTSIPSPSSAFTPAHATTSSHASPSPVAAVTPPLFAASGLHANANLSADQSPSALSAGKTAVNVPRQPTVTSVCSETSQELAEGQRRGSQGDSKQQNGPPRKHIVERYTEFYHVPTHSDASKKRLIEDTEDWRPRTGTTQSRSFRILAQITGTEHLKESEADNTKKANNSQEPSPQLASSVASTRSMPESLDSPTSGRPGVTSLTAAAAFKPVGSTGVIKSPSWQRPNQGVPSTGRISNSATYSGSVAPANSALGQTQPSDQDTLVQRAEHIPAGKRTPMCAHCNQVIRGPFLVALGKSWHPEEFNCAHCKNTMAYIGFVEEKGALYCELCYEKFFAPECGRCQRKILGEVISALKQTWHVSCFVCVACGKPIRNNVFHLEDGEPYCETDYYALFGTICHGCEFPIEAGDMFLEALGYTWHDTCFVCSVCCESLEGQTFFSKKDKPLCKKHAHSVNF
UniProt P08559, whole entry, looked up: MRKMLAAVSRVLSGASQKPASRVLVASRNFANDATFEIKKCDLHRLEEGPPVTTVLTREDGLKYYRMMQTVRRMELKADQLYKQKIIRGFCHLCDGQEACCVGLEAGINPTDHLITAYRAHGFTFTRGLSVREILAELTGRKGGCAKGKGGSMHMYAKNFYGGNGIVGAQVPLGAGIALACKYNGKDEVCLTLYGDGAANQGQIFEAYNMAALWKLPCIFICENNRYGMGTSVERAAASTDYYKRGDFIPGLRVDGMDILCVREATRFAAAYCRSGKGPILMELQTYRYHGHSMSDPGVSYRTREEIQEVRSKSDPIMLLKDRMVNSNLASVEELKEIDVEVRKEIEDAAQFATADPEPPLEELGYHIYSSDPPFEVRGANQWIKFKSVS
UniProt Q7Z2X7: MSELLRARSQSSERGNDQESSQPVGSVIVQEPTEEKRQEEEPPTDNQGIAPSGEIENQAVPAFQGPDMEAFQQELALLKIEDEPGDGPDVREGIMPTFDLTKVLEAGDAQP
UniProt Q9BPZ3: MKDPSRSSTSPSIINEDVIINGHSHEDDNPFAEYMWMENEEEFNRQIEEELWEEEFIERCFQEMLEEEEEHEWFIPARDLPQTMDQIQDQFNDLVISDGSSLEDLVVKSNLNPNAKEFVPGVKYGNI
UniProt P30086: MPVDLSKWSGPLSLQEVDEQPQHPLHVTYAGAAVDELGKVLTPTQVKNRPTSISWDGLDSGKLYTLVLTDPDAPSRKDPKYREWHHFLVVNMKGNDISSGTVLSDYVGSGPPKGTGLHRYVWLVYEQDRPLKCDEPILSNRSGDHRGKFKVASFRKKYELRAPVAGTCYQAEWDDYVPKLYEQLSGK
UniProt P22061: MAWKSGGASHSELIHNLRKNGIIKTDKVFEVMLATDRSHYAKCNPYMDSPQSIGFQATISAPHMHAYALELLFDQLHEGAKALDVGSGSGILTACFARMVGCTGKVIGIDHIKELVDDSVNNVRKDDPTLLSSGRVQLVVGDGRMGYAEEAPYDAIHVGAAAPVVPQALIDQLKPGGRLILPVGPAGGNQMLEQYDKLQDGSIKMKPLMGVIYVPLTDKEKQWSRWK
UniProt Q9H2J4: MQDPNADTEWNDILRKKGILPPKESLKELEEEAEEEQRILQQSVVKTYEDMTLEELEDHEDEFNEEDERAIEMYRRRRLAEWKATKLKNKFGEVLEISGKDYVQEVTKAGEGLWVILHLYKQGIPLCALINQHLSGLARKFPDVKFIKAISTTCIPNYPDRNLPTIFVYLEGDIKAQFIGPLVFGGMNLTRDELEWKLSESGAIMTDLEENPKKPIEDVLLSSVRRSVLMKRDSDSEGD
UniProt P61457: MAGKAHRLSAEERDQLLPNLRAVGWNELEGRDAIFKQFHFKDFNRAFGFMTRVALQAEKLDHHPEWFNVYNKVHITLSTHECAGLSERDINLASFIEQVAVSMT
UniProt Q15154: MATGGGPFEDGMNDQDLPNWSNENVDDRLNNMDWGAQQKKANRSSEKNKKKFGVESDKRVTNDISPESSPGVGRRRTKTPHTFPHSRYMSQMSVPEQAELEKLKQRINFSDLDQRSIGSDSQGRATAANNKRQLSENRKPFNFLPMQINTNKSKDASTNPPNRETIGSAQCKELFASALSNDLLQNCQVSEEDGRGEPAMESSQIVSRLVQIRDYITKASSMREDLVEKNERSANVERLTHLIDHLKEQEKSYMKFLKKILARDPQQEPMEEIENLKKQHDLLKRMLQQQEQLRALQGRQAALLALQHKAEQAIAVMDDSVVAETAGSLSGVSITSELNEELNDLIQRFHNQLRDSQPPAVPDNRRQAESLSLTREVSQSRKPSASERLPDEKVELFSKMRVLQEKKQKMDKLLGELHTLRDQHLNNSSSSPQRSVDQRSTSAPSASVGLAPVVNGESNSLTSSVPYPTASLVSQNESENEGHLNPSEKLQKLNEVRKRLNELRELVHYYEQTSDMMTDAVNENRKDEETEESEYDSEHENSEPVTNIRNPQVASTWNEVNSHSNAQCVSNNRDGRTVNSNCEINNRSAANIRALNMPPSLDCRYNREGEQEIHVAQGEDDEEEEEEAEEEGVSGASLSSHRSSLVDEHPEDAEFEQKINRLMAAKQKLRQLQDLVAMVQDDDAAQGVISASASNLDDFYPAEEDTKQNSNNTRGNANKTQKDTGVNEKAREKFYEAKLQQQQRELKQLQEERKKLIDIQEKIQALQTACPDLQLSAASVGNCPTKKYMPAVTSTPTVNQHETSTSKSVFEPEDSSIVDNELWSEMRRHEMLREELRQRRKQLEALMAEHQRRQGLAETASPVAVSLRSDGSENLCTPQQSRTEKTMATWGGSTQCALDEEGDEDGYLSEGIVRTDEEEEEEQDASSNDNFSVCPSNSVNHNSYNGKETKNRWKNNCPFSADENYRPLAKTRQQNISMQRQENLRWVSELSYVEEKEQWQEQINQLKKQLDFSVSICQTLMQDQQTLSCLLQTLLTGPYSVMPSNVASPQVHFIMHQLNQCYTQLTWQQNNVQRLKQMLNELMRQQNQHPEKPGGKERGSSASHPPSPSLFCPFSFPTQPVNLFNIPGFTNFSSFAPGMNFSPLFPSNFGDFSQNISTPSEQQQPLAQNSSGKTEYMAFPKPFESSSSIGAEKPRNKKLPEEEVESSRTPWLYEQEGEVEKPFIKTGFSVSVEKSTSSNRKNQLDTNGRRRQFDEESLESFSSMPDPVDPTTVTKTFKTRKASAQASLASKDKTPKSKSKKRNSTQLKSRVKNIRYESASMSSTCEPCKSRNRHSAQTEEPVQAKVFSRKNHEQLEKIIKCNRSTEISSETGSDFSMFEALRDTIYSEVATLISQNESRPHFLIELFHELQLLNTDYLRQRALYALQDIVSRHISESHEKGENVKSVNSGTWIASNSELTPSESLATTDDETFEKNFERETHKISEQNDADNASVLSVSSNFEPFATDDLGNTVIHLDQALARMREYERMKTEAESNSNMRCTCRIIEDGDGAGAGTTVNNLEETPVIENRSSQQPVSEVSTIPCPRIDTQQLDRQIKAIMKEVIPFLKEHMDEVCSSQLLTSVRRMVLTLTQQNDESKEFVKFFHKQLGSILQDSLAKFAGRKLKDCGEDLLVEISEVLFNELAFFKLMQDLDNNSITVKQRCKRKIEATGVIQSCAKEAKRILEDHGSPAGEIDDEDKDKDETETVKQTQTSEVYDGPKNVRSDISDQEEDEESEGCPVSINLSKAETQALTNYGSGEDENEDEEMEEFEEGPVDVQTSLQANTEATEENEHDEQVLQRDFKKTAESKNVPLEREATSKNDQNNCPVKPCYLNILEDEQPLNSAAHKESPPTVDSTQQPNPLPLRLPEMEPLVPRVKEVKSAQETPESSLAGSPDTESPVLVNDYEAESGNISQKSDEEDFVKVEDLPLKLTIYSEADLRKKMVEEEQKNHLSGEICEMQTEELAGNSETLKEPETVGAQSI
UniProt P22234: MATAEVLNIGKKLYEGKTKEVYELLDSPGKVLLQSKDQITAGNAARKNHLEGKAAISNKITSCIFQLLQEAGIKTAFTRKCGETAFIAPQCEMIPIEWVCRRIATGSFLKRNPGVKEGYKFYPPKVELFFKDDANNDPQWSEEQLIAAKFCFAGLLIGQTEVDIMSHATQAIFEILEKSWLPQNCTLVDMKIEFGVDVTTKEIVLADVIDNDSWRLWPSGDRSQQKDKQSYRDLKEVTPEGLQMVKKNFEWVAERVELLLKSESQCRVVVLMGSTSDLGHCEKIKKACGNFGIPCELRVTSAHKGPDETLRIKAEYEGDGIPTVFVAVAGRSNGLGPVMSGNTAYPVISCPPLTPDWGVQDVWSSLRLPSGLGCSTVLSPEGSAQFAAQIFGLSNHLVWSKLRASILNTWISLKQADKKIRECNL
UniProt Q8NCN5: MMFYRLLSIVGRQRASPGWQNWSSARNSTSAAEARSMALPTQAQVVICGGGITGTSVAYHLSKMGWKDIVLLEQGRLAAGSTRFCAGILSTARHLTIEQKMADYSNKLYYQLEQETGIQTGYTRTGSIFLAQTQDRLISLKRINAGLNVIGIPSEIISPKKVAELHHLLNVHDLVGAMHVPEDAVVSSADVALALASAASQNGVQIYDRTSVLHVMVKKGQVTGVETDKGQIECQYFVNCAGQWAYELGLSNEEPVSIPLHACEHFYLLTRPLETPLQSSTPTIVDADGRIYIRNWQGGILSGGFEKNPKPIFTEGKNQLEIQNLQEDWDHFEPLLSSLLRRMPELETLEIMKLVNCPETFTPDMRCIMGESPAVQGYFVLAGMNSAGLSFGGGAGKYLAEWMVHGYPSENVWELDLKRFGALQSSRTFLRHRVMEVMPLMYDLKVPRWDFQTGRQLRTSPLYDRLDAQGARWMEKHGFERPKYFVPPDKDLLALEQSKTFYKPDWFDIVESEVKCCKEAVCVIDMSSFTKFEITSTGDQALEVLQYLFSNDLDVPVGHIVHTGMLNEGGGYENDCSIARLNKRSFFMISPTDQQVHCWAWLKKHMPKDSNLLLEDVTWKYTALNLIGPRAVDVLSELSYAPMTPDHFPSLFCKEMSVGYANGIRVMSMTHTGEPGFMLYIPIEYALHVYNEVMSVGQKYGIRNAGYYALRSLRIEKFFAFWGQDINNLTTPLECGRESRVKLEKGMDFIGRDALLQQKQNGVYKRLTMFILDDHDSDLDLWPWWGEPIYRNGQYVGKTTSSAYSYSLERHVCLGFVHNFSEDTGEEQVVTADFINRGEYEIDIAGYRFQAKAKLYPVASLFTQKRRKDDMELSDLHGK

Columns and labels:
Assay in all cases: log2 fold change, soluble protein after heating vs DMSO (PISA); higher = thermal stabilisation; K562 cells, 10 uM, 30 min; active = over 0.2 and 3.5 SD of the protein, either way, in both replicates (recomputed)
saracatinib = compound: CN1CCN(CCOc2cc(OC3CCOCC3)c3c(Nc4c(Cl)ccc5c4OCO5)ncnc3c2)CC1 [saracatinib]
Method in brief: (§1)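 Thermal stability values are relative to control samples and come from duplicates. They are expressed as log2 fold changes. For measurement, K562 cells (2×10^6 cells/mL) received 10 μM compound for 30 min, and aliquots were heated for 3 min over 48°C-58°C, pooled, and extracted at 4°C in PBS with 0.5% NP-40. Soluble protein, the supernatant after 21,000xg for 90 min, was quantified by TMTpro 16plex LC-MS/MS with equalised channel sums.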

sotrastaurin = compound: CN1CCN(c2nc(C3=C(c4c[nH]c5ccccc45)C(=O)NC3=O)c3ccccc3n2)CC1 [sotrastaurin]
Method in brief: as §1

alvocidib = compound: CN1CC[C@H](c2c(O)cc(O)c3c(=O)cc(-c4ccccc4Cl)oc23)[C@H](O)C1 [alvocidib]
Method in brief: as §1

Tubastatin A = compound: CN1CCc2c(c3ccccc3n2Cc2ccc(C(=O)NO)cc2)C1 [Tubastatin A]
Method in brief: as §1

[1] = compound: CNC(=O)C1=CC=CC=C1NC2=NC(=NC=C2Cl)NC3=C(C=C(C=C3)N4CCOCC4)OC
Method in brief: as §1

defactinib = compound: CNC(=O)c1ccc(Nc2ncc(C(F)(F)F)c(NCc3nccnc3N(C)S(C)(=O)=O)n2)cc1 [defactinib]
Method in brief: as §1

rucaparib = compound: CNCc1ccc(-c2[nH]c3cc(F)cc4c3c2CCNC4=O)cc1 [rucaparib]
Method in brief: as §1

[2] = compound: CNc1nc(-c2ccc3c(N)n[nH]c3c2)cc(N2C[C@@H](C(=O)NC3CCCCC3)CC[C@H]2C)n1
Method in brief: as §1

encorafenib = compound: COC(=O)N[C@@H](C)CNc1nccc(-c2cn(C(C)C)nc2-c2cc(Cl)cc(NS(C)(=O)=O)c2F)n1 [encorafenib]
Method in brief: as §1

[3] = compound: COC(=O)[C@H](CCSC)NC(=O)C1=C(C=C(C=C1)NC[C@H](CS)N)C2=CC=CC=C2
Method in brief: as §1

Measured: log2 fold change

PAGE1 (UniProt O75459)
inactive: saracatinib 0.057 | sotrastaurin 0.144 | alvocidib 0.12 | Tubastatin A -0.019 | [1] -0.018 | defactinib 0.04 | rucaparib -0.04 | [2] -0.042 | encorafenib -0.098 | [3] 0.143

PET100 (UniProt P0DJ07)
inactive: saracatinib 0.035 | sotrastaurin 0.081 | alvocidib 0.006 | Tubastatin A 0.03 | [1] 0.04 | defactinib -0.007 | rucaparib -0.041 | [2] -0.012 | encorafenib -0.079 | [3] 0.004

PCYT2 isoform 3 (UniProt Q99447)
inactive: saracatinib 0.003 | sotrastaurin 0.005 | alvocidib -0.014 | Tubastatin A -0.04 | [1] 0.068 | defactinib 0.003 | rucaparib -0.041 | [2] 0.005 | encorafenib 0.006 | [3] -0.035

PAPSS1 (UniProt O43252)
inactive: saracatinib 0.083 | sotrastaurin 0.059 | alvocidib -0.099 | Tubastatin A -0.033 | [1] -0.018 | defactinib -0.005 | rucaparib 0.009 | [2] 0.03 | encorafenib -0.004 | [3] 0.022

Quoted at random: two records from the list
PCYT2 isoform 3 (UniProt Q99447)
inactive: saracatinib 0.003 | sotrastaurin 0.005 | alvocidib -0.014 | Tubastatin A -0.04 | [1] 0.068 | defactinib 0.003 | rucaparib -0.041 | [2] 0.005 | encorafenib 0.006 | [3] -0.035

PAGE1 (UniProt O75459)
inactive: saracatinib 0.057 | sotrastaurin 0.144 | alvocidib 0.12 | Tubastatin A -0.019 | [1] -0.018 | defactinib 0.04 | rucaparib -0.04 | [2] -0.042 | encorafenib -0.098 | [3] 0.143

Remaining list, next part.

PANK2 (UniProt Q9BZ23)
inactive: saracatinib 0.081 | sotrastaurin -0.035 | alvocidib -0.111 | Tubastatin A -0.016 | [1] -0.121 | defactinib -0.041 | rucaparib 0.034 | [2] -0.051 | encorafenib 0.001 | [3] 0.006

PDF (UniProt Q9HBH1)
inactive: saracatinib 0.053 | sotrastaurin 0.076 | alvocidib 0 | Tubastatin A -0.046 | [1] 0.011 | defactinib -0.04 | rucaparib 0.015 | [2] -0.098 | encorafenib -0.005 | [3] 0.044

PAGR1 (UniProt Q9BTK6)
inactive: saracatinib 0.011 | sotrastaurin -0.017 | alvocidib 0.059 | Tubastatin A 0.045 | [1] -0.04 | defactinib -0.027 | rucaparib -0.037 | [2] -0.031 | encorafenib 0.038 | [3] -0.028

PDLIM5 (UniProt Q96HC4)
inactive: saracatinib 0.004 | sotrastaurin -0.01 | alvocidib -0.042 | Tubastatin A 0.012 | [1] -0.032 | defactinib -0.033 | rucaparib -0.043 | [2] -0.009 | encorafenib 0.007 | [3] -0.005

PDHA1 isoform 4 (UniProt P08559)
inactive: saracatinib -0.163 | sotrastaurin -0.151 | alvocidib 0.048 | Tubastatin A 0.092 | [1] -0.042 | defactinib 0.174 | rucaparib 0.066 | [2] 0.183 | encorafenib 0.106 | [3] -0.036

PBXIP1 (UniProt Q96AQ6)
inactive: saracatinib 0.016 | sotrastaurin -0.029 | alvocidib 0.025 | Tubastatin A 0.012 | [1] 0.005 | defactinib 0.026 | rucaparib 0.05 | [2] -0.091 | encorafenib -0.009 | [3] -0.006

PANK1 (UniProt Q8TE04)
inactive: saracatinib -0.008 | sotrastaurin 0.069 | alvocidib -0.055 | Tubastatin A 0 | [1] -0.009 | defactinib -0.046 | rucaparib -0.169 | [2] 0.004 | encorafenib 0.046 | [3] -0.05

PCCA (UniProt P05165)
inactive: saracatinib -0.01 | sotrastaurin 0.017 | alvocidib -0.02 | Tubastatin A -0.016 | [1] -0.006 | defactinib -0.043 | rucaparib -0.036 | [2] -0.028 | encorafenib 0.019 | [3] -0.008

PAGE2 (UniProt Q7Z2X7)
inactive: saracatinib -0.003 | sotrastaurin 0.072 | alvocidib -0.036 | Tubastatin A 0.133 | [1] -0.004 | defactinib 0.014 | rucaparib -0.047 | [2] -0.07 | encorafenib -0.087 | [3] 0.083

PDK1 (UniProt Q15118)
inactive: saracatinib -0.009 | sotrastaurin 0.066 | alvocidib 0.002 | Tubastatin A -0.019 | [1] 0.077 | defactinib 0.043 | rucaparib 0.017 | [2] 0.129 | encorafenib -0.148 | [3] -0.037

PAIP2 (UniProt Q9BPZ3)
inactive: saracatinib -0.139 | sotrastaurin -0.002 | alvocidib -0.08 | Tubastatin A 0.081 | [1] 0.062 | defactinib 0.134 | rucaparib 0.079 | [2] -0.095 | encorafenib 0.008 | [3] 0.094

PARS2 (UniProt Q7L3T8)
inactive: saracatinib 0.082 | sotrastaurin -0.004 | alvocidib 0.022 | Tubastatin A 0.108 | [1] 0.02 | defactinib -0.036 | rucaparib 0 | [2] -0.037 | encorafenib -0.026 | [3] -0.008

PEBP1 (UniProt P30086)
inactive: saracatinib 0.052 | sotrastaurin 0.016 | alvocidib -0.014 | Tubastatin A -0.022 | [1] -0.019 | defactinib 0.015 | rucaparib -0.046 | [2] 0.008 | encorafenib -0.036 | [3] 0.055

PDIA5 (UniProt Q14554)
inactive: saracatinib -0.04 | sotrastaurin -0.029 | alvocidib 0.039 | Tubastatin A 0.022 | [1] -0.016 | defactinib 0.056 | rucaparib 0.03 | [2] 0.008 | encorafenib 0.072 | [3] -0.019

PDXDC1 (UniProt Q6P996)
inactive: saracatinib -0.134 | sotrastaurin -0.121 | alvocidib -0.188 | Tubastatin A -0.046 | [1] 0.043 | defactinib 0.194 | rucaparib 0.501 | [2] 0.072 | encorafenib 0.326 | [3] -0.049

PCMT1 isoform 2 (UniProt P22061)
inactive: saracatinib -0.002 | sotrastaurin -0.026 | alvocidib -0.046 | Tubastatin A -0.027 | [1] 0.026 | defactinib -0.026 | rucaparib 0.011 | [2] 0.025 | encorafenib -0.027 | [3] -0.009

PDLIM4 (UniProt P50479)
inactive: saracatinib 0.006 | sotrastaurin 0.011 | alvocidib 0.039 | Tubastatin A 0.03 | [1] -0.019 | defactinib -0.025 | rucaparib -0.028 | [2] -0.041 | encorafenib -0.007 | [3] 0.025

PASK (UniProt Q96RG2)
inactive: saracatinib 0.082 | sotrastaurin 0.039 | alvocidib -0.022 | Tubastatin A 0.022 | [1] 0.045 | defactinib -0.078 | rucaparib 0.024 | [2] -0.116 | encorafenib 0.052 | [3] 0.029

PDCL3 (UniProt Q9H2J4)
inactive: saracatinib -0.002 | sotrastaurin 0.021 | alvocidib -0.021 | Tubastatin A 0.005 | [1] -0.002 | defactinib -0.029 | rucaparib -0.057 | [2] -0.034 | encorafenib -0.026 | [3] 0.027

PCBD1 (UniProt P61457)
inactive: saracatinib 0.023 | sotrastaurin 0.028 | alvocidib 0.011 | Tubastatin A -0.01 | [1] -0.087 | defactinib -0.003 | rucaparib 0.034 | [2] -0.042 | encorafenib -0.014 | [3] -0.01

PCM1 isoform 5 (UniProt Q15154)
inactive: saracatinib -0.139 | sotrastaurin -0.088 | alvocidib 0.098 | Tubastatin A 0.051 | [1] -0.018 | defactinib 0.029 | rucaparib 0.166 | [2] 0.049 | encorafenib 0.13 | [3] 0.025

PDSS1 (UniProt Q5T2R2)
inactive: saracatinib 0.028 | sotrastaurin 0.223 | alvocidib -0.057 | Tubastatin A -0.116 | [1] -0.044 | defactinib -0.055 | rucaparib -0.051 | [2] 0.029 | encorafenib -0.025 | [3] -0.06

PAICS (UniProt P22234)
inactive: saracatinib -0.005 | sotrastaurin 0.051 | alvocidib 0.005 | Tubastatin A -0.016 | [1] 0.048 | defactinib 0.001 | rucaparib -0.029 | [2] -0.03 | encorafenib -0.04 | [3] 0.034

PDZD8 (UniProt Q8NEN9)
inactive: saracatinib 0.058 | sotrastaurin -0.046 | alvocidib -0.06 | Tubastatin A -0.018 | [1] 0.004 | defactinib -0.065 | rucaparib -0.035 | [2] -0.006 | encorafenib -0.006 | [3] -0.016

PDPR (UniProt Q8NCN5)
inactive: saracatinib -0.004 | sotrastaurin -0.01 | alvocidib -0.11 | Tubastatin A 0.001 | [1] 0.101 | defactinib -0.053 | rucaparib -0.009 | [2] -0.031 | encorafenib -0.018 | [3] -0.023
